Reference: patent US11286299B2, “Peptides selective for Bcl-2 family proteins” (Massachusetts Institute of Technology, priority 2018, dated 2022)
For some assays here: At least one compound was matched to its structure with a doubt left. Some of these results come from one statement about several compounds together.

Key:
Bfl-1, Mcl-1, and Bcl-xL = assay: Competition fluorescence polarization solution binding, target versus off-target statements; parameters: species or system human; details: for Ki tighter to Mcl-1 and Bfl-1 than to Bcl-xL: studies in solution
Bfl-1 = target: T1, Bfl-1 (Homo sapiens, UniProt Q16548); assay: Competition fluorescence polarization (anisotropy) binding assay; parameters: Bfl-1 residues 1-151; made in house; host or cells: E. coli; details: Table X2; 50 nM protein, 25 nM fluoresceinated Bim BH3; SD of three replicates
T1 sequence (Q16548 1-151): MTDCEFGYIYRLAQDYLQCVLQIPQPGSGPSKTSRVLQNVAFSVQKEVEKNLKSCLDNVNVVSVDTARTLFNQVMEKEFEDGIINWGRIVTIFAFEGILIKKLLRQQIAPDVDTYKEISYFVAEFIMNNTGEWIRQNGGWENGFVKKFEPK
Description: Fluorescence polarization competition binding assay Competition fluorescence polarization experiments were performed as described by Jenson et al. […]. Experiments were performed in triplicate, using the same protein and peptide preparations, and data were fit as described by Foight et al. (20) to a complete competitive binding model (47).

Substance | specificity for target in solution binding assays (Bfl-1, Mcl-1, and Bcl-xL) [fold] | Ki tighter to Mcl-1 and Bfl-1 than to Bcl-xL (Bfl-1, Mcl-1, and Bcl-xL) [fold] | also measured
Ac-QPLIWFGAQLRRGADEFAAQRER-NH2 [srt.X7] | > 1000 |  | 
Ac-QRVVHIAAGLRRTGDQLEAYGER-NH2 [srt.F4] |  |  | Ki (Bfl-1): > 4 µM
Ac-QTLIWYGASLRRYADEFAKQRER-NH2 [srt.X1] | > 1000 |  | 
Ac-RRVDEIAQILRRIGDNVTTYIER-NH2 [srt.MF06] |  | > 100 | 
Ac-RWIDQIAQFLRRIGDHIEKYIER-NH2 [srt.MF02] |  | > 100 | 
